Values joined by “and” are separate entries in the source; they are usually repeats but may differ in a detail not shown here. Equal entries are not always repeated. The campaign covered roughly 300,000 compounds. About 5,400 (1.8%) were called active. The inconclusive results got no clear call from the source; some entries with a clear call stand among them for comparison. The call rests on the fitted dose curve; tested in HEK293 cells. Where the call is inconclusive, the potency comes from a doubtful curve fit. The source holds several records for some structures; these can differ, active in one and inactive in another.
Test: qHTS for inhibitors of binding or entry into cells for Marburg Virus
Settings: Marburg virus pseudotyped entry inhibition, cell reporter; activity change, negative = inhibition: at 37.8 µM (top of the series) unless noted
For `CCCCCCCCCC[Si](C)(C)CCC(=O)N[C@@H](Cc1ccc(C)cc1)c1ccccc1`, the “activity change, negative = inhibition” value was inactive: 14%. With `O=c1cc(Nc2ccc3c(c2)OCCO3)[nH]c(=O)n1Cc1ccc(F)cc1` the “activity change, negative = inhibition” value was inactive: 7.87%. In the case of `Oc1csc(Cc2nc(-c3ccc(Br)cc3)cs2)n1`, the “activity change, negative = inhibition” value is reported as inactive: 12.9% [at 46.1 µM]. For `CSc1ccc(/C=N/NC(=O)c2cccs2)cc1`, the Potency was inconclusive: 3.16 µM [activator, partial curve, poor fit]. For `COc1ccc(N(C(=O)CNS(=O)(=O)c2ccccc2)C(C(=O)NCc2ccco2)C(C)C)cc1` (configuration not stated), the “activity change, negative = inhibition” value was inactive: -16.7% [at 46.1 µM]. For `CSc1ccccc1NC(=O)CN1C(=O)C2CC=CCC2C1=O` (configuration not stated), the Potency was inconclusive: 15.8 µM [activator, single point]. With `Cc1ccc(-n2cc(CN3CCN(c4ccccn4)CC3)c(-c3ccc(F)cc3)n2)cc1` the Potency was inconclusive: 17.8 µM [inhibitor, single point]. For `COc1cc(C(=O)Nc2cc3c(cc2C)n(C)c(=O)c(=O)n3C)cc(OC)c1OC`, the “activity change, negative = inhibition” value was inactive: 24.5% [at 46.1 µM]. In the case of `Cc1sc2nc(CN3CCCC3)nc(N3CCN(S(=O)(=O)c4cccs4)CC3)c2c1C`, the Potency is reported as active: 14.6 µM. With `Cc1ccccc1NCc1ccc([N+](=O)[O-])s1` the “activity change, negative = inhibition” value was inactive: -4.21%. For `Cc1ccc(N2C(=O)N(CC(=O)Nc3ccccc3C(F)(F)F)C(=O)C2C)cc1` (configuration not stated), the “activity change, negative = inhibition” value was inactive: 7.76%. For `Cc1ccc(NC(=O)c2cccc(NC(=O)/C=C/c3ccco3)c2)cc1C`, the Potency was inconclusive: 3.55 µM [activator, partial curve, poor fit]. With `O=[N+]([O-])c1ccccc1SNc1ccccn1` the Potency was inconclusive: 0.631 µM [activator, partial curve, poor fit]. With `Cc1cc2c(c(=O)n1Cc1cccnc1)C(Cc1ccccc1)C(C#N)=C(N)O2` (configuration not stated) the “activity change, negative = inhibition” value was inactive: 2.08%. In the case of `Cn1c(SCC(=O)N/N=C/c2cc([N+](=O)[O-])ccc2O)nnc1-c1ccccc1`, the Potency is reported as inconclusive: 10 µM [inhibitor, partial curve, poor fit]. In the case of `COc1ccc2c(C)c(CCC(=O)NCCc3ccccc3OC)c(=O)oc2c1`, the “activity change, negative = inhibition” value is reported as inactive: -16.1% [at 46.1 µM]. In the case of `CCCCCn1c(Sc2nc3ccccc3s2)nc2c1c(=O)[nH]c(=O)n2C`, the Potency is reported as inconclusive: 29.1 µM [inhibitor, single point]. For `CC1CC(C)CN(S(=O)(=O)c2ccc(C(=O)Nc3nnc(-c4cccs4)o3)cc2)C1` (configuration not stated), the Potency was active: 7.94 µM. In the case of `CC(C)C[C@H](NC(=O)C1OC1C(=O)O)C(=O)NCCCCN=C(N)N` (some centres not stated), the Potency is reported as active: 3.98 µM and active: 4.11 µM. With `Cc1[nH]c2ccccc2c1C(=O)C(=O)Nc1ccc2c(c1)OCCO2` the Potency was inconclusive: 1.58 µM [activator, single point]. For `CCOC(=O)c1c(Nc2ccc(C)cc2)nnc(-c2ccccc2)c1-c1ccccc1`, the “activity change, negative = inhibition” value was inactive: -2.82% [at 46.1 µM]. With `CCOc1cc(C#N)c(NC(=O)Cn2nnc3ccccc32)cc1OCC` the Potency was inconclusive: 29.1 µM [inhibitor, single point]. In the case of `COc1cc(/C=N/n2cnnc2)ccc1OCCOc1ccccc1`, the “activity change, negative = inhibition” value is reported as inactive: -12.5%. For `O=C(Nc1ccc2c(c1)OCCO2)c1ccco1`, the Potency was inconclusive: 0.82 µM [activator, partial curve, poor fit]. In the case of `Cc1ccc(NC(=O)N2CCC(c3nc4c(nnn4Cc4cccc(Cl)c4)c(=O)[nH]3)CC2)cc1`, the Potency is reported as inconclusive: 6.51 µM [inhibitor, partial curve, poor fit]. With `Cn1c(=O)n(-c2ccc(F)c(Cl)c2)c(=O)c2sc3ccccc3c21` the “activity change, negative = inhibition” value was inactive: -7.37% [at 46.1 µM]. With `C=CCNc1nc(N2CCCCC2)c(C#N)c2c1CN(Cc1ccccc1)CC2` the Potency was inconclusive: 22.4 µM [inhibitor, single point]. For `Cc1ccc(Cl)cc1NC(=O)c1oc2c(c1C)-c1[nH]ncc1CC2`, the Potency was inconclusive: 6.31 µM [inhibitor, single point]. In the case of `COC(=O)/C(C#N)=C/c1occc1C`, the Potency is reported as inconclusive: 29.1 µM [activator, single point]. For `CCOC(=O)c1[nH]cnc1N=Nc1c(O)ccc2ccccc12`, the Potency was inconclusive: 35.5 µM [inhibitor, partial curve, poor fit]. For `CCSc1ncc(Cl)c(C(=O)Nc2ccccc2)n1`, the “activity change, negative = inhibition” value was inactive: 11.9%. For `O=C1CC(c2cccc([N+](=O)[O-])c2)c2c(ccc3ccccc23)N1` (configuration not stated), the Potency was inconclusive: 7.94 µM [inhibitor, partial curve, poor fit]. With `O=S(=O)(c1ccc(S(=O)(=O)N(Cc2cccs2)CC2CCCO2)cc1)N1CCCCC1` (configuration not stated) the Potency was inconclusive: 29.1 µM [inhibitor, single point]. In the case of `CCCN1C(=O)C(O)(C2COC(C)(C)CC2=O)c2ccccc21` (configuration not stated), the Potency is reported as inconclusive: 25.1 µM [inhibitor, single point]. In the case of `CC1=C(C(=O)OC2CCCCCC2)C(c2c(F)cccc2Cl)CC(=O)N1` (configuration not stated), the Potency is reported as inconclusive: 35.5 µM [inhibitor, single point]. With `CCC/C(=N\NC(=O)c1ccc(CSc2nncn2C)cc1)c1ccccc1` the Potency was inconclusive: 1 µM [activator, full curve, poor fit]. With `CN1CCN(CCC(=O)N2c3ccccc3Sc3ccc(Cl)cc32)CC1` the Potency was inconclusive: 32.6 µM [inhibitor, single point]. For `CCOc1ccccc1NC(=O)c1cc2c(Cl)nc3ccccc3c2s1`, the “activity change, negative = inhibition” value was inactive: -2.08% [at 46.1 µM]. For `CCOC(=O)c1c(OCC)[nH]c2c1cc(O)c1ccccc12`, the “activity change, negative = inhibition” value was inactive: 4.5%. With `COc1ccccc1N1CCN(CCN(C(=O)c2ccc(F)cc2)c2ccccn2)CC1` the Potency was inconclusive: 35.5 µM [inhibitor, single point]. With `COc1ccc(NC(=O)CSc2nc(N)c3cc4c(nc3n2)CC(C)(C)OC4)cc1` the Potency was inconclusive: 0.562 µM [inhibitor, full curve, poor fit]. For `CCOC(=O)CC(NC(=O)Cc1ccccc1)c1ccccc1Cl` (configuration not stated), the Potency was inconclusive: 6.31 µM [inhibitor, single point]. In the case of `COc1ccccc1/C=C/C=N/N1CCN(Cc2ccccc2)CC1`, the “activity change, negative = inhibition” value is reported as inactive: -0.365%. With `COc1cccc(/C=N/Nc2c(Cl)cncc2Cl)c1O` the Potency was inconclusive: 1.26 µM [activator, single point]. For `CCC(=O)Nc1ccc2oc(-c3cccc(C)c3)nc2c1`, the Potency was inconclusive: 5.62 µM [inhibitor, partial curve, poor fit]. In the case of `COc1ccccc1C(=O)NC(=S)Nc1cc(C(=O)O)ccc1C`, the Potency is reported as inconclusive: 2.82 µM [activator, full curve, poor fit]. For `COc1ccc(/C=N/n2nnnc2N)cc1OC`, the Potency was inconclusive: 3.55 µM [activator, partial curve]. With `c1ccc2c(N3CCNCC3)cccc2c1` the Potency was active: 11.2 µM. For `COc1cccc(N2CCN(Cc3ccco3)CC2)c1`, the “activity change, negative = inhibition” value was inactive: 15.6%. For `Cn1cnc([N+](=O)[O-])c1SCC(O)CCl` (configuration not stated), the Potency was inconclusive: 3.16 µM [activator, single point]. With `Cc1cc(C)nc(NC(=O)CSc2nc3cc(Cl)ccc3s2)n1` the Potency was inconclusive: 2.24 µM [inhibitor, full curve, poor fit]. With `CCCCCCN=C(CC)c1c(O)n(CCCC)c(=O)[nH]c1=O` the Potency was inconclusive: 9.2 µM [inhibitor, partial curve, poor fit]. In the case of `CCOP(=O)(OCC)C(NC(=O)Nc1ccccc1)C(N)=O` (configuration not stated), the Potency is reported as inconclusive: 0.251 µM [activator, full curve]. In the case of `Cc1ccc(S(=O)(=O)NC(CC(=O)N2CCOCC2)c2ccco2)cc1` (configuration not stated), the “activity change, negative = inhibition” value is reported as inactive: 18.4%. In the case of `CCC1(C)NC(=O)N(CC(=O)N2N=C(c3ccccc3)CC2c2ccc(OC)cc2)C1=O` (configuration not stated), the Potency is reported as inconclusive: 15.8 µM [inhibitor, single point]. In the case of `CC(Nc1ncnc2ccccc12)c1ccccc1` (configuration not stated), the Potency is reported as inconclusive: 2.82 µM [inhibitor, full curve]. With `COC(=O)c1ccc(NC(=O)CSc2ccccc2)cc1` the Potency was inconclusive: 20 µM [activator, single point]. In the case of `Cc1nc2ccccn2c1-c1csc(Nc2cccc(C(=O)O)c2)n1`, the “activity change, negative = inhibition” value is reported as inactive: -2.09% [at 46.1 µM]. For `COC(=O)c1ccc(COc2ccc3c(c2)CCC3)o1`, the Potency was inconclusive: 3.98 µM [activator, single point]. For `Cc1c2cc[n+](CCN3CCCCC3)cc2c(C)c2c1[nH]c1ccc(O)cc12`, the Potency was inconclusive: 4.47 µM [inhibitor, full curve, poor fit]. For `NC(=O)NCCC1=CCCCC1`, the “activity change, negative = inhibition” value was inactive: -1.18%. With `Cc1n[nH]c(=O)n1-c1ccc(C(C)C)cc1` the Potency was inconclusive: 1.58 µM [inhibitor, partial curve, poor fit]. For `CCOc1ccc(OCCN(C)Cc2ccccc2)cc1`, the Potency was inconclusive: 29.1 µM [inhibitor, single point]. In the case of `Cc1cc(C)c2c(N)c(C(=O)NNC(=O)c3ccccc3)sc2n1`, the “activity change, negative = inhibition” value is reported as inactive: 3.93% [at 46.1 µM]. In the case of `COc1ccccc1NC(=O)c1cnc(SCC(=O)NCCc2ccccc2)n(C)c1=O`, the “activity change, negative = inhibition” value is reported as inactive: -6.22%. With `Cc1ccc(N(C(=O)CNC(=O)c2ccco2)C(C(=O)NC2CCCCC2)c2cccnc2)c(C)c1` (configuration not stated) the Potency was inconclusive: 2 µM [inhibitor, partial curve, poor fit]. In the case of `CCOC(=O)c1c(C)n(CCOc2ccccc2)c2ccc(O)cc12`, the “activity change, negative = inhibition” value is reported as inactive: 1.17%. With `C=C(C)Cn1c(=O)c2c(nc3n2CCCN3Cc2ccccc2)n(C)c1=O` the Potency was inconclusive: 31.6 µM [activator, partial curve, poor fit]. For `COCCN(C(=O)Cn1nnc2ccccc21)C(C(=O)NC1CCCC1)c1cccc(OC)c1OC` (configuration not stated), the Potency was “inactive”. For `Clc1ccccc1-c1nn2c(-c3ccncc3)nnc2s1`, the Potency was active: 7.3 µM. For `O=c1ccc(-c2nc3ccccc3n2Cc2ccc(Cl)cc2)c[nH]1`, the Potency was inconclusive: 8.91 µM [inhibitor, partial curve, poor fit]. With `Cc1ccc(S(=O)(=O)N2CCN(CC(=O)N/N=C/c3ccc(Br)s3)CC2)cc1` the Potency was inconclusive: 11.2 µM [inhibitor, single point].

— PubChem BioAssay AID540276 (National Center for Advancing Translational Sciences (NCATS), 2011)
On the % scale 0 is the no-effect control and ±100 the full control effect; potency means the concentration at half of the fitted maximal effect.
